Percent effect of library compounds

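Phenotypic screen: M. tuberculosis growth, glucose 7H9 medium, 3 days; the read-out is not stated. Compounds at 50 µM. Higher reads as more growth inhibition (inferred: compounds with an IC50 in retests scored well above the rest). About 69,000 compounds were tested under these conditions; 1.1% (about 760) showed 50% or more at least once.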

Values are the deposited “Percent Effect”, in %. The controls that fix the scale are not given in the record; negative values are as filed. This is an unselected part of the compounds tested. Two or more numbers in one place are separate tests of the same structure; such repeats can differ widely.

Compound: CCOC(=O)C1CCN(C(=O)c2cc(F)ccc2-n2cnnn2)CC1
Percent Effect: 3.541

Compound: C[C@@H]1CN(C2(C(=O)N(C)C)Cc3ccccc3C2)C[C@H](C)O1
Percent Effect: 0.7585 & 3.515

Compound: Cc1cn[nH]c1C1COCCN1C(=O)c1ccc2c(c1)CCCC2 (stereo unspecified)
Percent Effect: 3.062

Compound: OC1(CNCc2cnc(N3CCOCC3)nc2)CCCCC1
Percent Effect: 20.52

Compound: CCn1ccnc1CN1CCN(CCc2ccncc2)CC1C (stereo unspecified)
Percent Effect: -27.56

Compound: Cc1cc(C)n(-c2cncc(N3CCN(C(=O)C(C)(C)C)CC3)n2)n1
Percent Effect: 23

Compound: O=C(O)C(F)(F)F.O=C(O)C(F)(F)F.O=C(O)C(F)(F)F.O=C(O)C(F)(F)F.c1ccc(CN2CCC3(CC2)CCN(Cc2cccnc2)C3)nc1
Percent Effect: 25.21

Compound: CC(C)c1noc(CS(=O)(=O)CC(=O)NCCOc2ccccc2)n1
Percent Effect: -11.54

Compound: N#Cc1ccccc1CN1CCc2sccc2C1
Percent Effect: 14.15

Compound: Cc1ccc2nc(C3CCCN3Cc3cccc(CCN)c3)[nH]c2c1 (stereo unspecified)
Percent Effect: 5.409

Compound: CCN(CC)C(=O)Cn1ccc2cc(NC(=O)NC3CC3)ccc21
Percent Effect: 32.49

Compound: Cc1nc(N2C[C@@H](CN3CCCN(C)CC3)[C@@H](CO)C2)c2ccsc2n1
Percent Effect: -30.96

Compound: CCOc1ccc(CN2CCNC(C(=O)NC3CC3)C2)cc1CO (stereo unspecified)
Percent Effect: -3.921 & 3.205

Compound: CCS(=O)(=O)N1CCC2(CC1)CN(c1cccnc1)C(=O)CO2.O=C(O)C(F)(F)F
Percent Effect: -15.4

Compound: Cc1ncnc2c1CCN(CC1CCOC1)CC2.O=C(O)C(F)(F)F (stereo unspecified)
Percent Effect: -16.85

Compound: Cc1cc2c(=O)n3c(nc2s1)CCN(Cc1cnc(C)n1C)CC3.Cl
Percent Effect: 9.111

Compound: CC(=O)N1CCC[C@@H](NCc2c[nH]c3ccccc23)[C@@H]1c1ccc(C)s1.Cl
Percent Effect: 12.87

Compound: Cl.[H][C@@]12CCCCN[C@]1([H])[C@@H](c1ccccc1)CCN2S(=O)(=O)N1CCCC1
Percent Effect: -3.144

Compound: CC(C)N1CCCC1c1cc(CO)[nH]n1.O=CO (stereo unspecified)
Percent Effect: -18.75

Compound: CC(NC(=O)NCCS(C)(=O)=O)c1ccc2c(c1)CCC(=O)N2 (stereo unspecified)
Percent Effect: 21.6

Compound: CC(C)CC(C)NC1CCN(c2ccc(-c3cscn3)cc2)CC1 (stereo unspecified)
Percent Effect: 15.54

Compound: CC1c2ncc(CN3CCN(C)CC3)n2CCN1Cc1cccnc1.O=C(O)C(F)(F)F.O=C(O)C(F)(F)F.O=C(O)C(F)(F)F.O=C(O)C(F)(F)F (stereo unspecified)
Percent Effect: 18.15

Compound: COc1ccc(C(=O)NCc2ccc(C(=O)O)o2)cc1
Percent Effect: -20.82 & 0.4671

Compound: CC(C)Sc1nnc(CCNC(=O)OC(C)(C)C)o1
Percent Effect: 2.409

Compound: O=C(O)C(F)(F)F.[H][C@@]12COC[C@H](C(=O)N3CCCCO3)[C@]1([H])CN(Cc1cc(C)on1)C2
Percent Effect: -30.74

Compound: Cc1noc(C)c1CN(C)C(=O)c1ccc(C(F)(F)F)nc1
Percent Effect: -0.9918

Compound: CCS(=O)(=O)N1CCC2(CC1)c1ncc(-c3cccnc3)n1CCN2C
Percent Effect: -18.82

Compound: CCC(CC)(CN)NC(C)c1ccccc1 (stereo unspecified)
Percent Effect: 4.065 & 3.598

Compound: Cn1c(N)nnc1SCc1cc(Br)ccc1Cl
Percent Effect: -44.35

Compound: CC(C)N1CCCC(Cc2nccnc2Cl)C1 (stereo unspecified)
Percent Effect: 8.439

Compound: CC(=O)NC1CCN(c2ncnc3c2c(C)nn3C)C1 (stereo unspecified)
Percent Effect: -4.734

Compound: Cc1nc(NC(=O)N2CCCC(C(C)(C)O)C2)nn1C (stereo unspecified)
Percent Effect: -21.86

Compound: O=C(c1cscn1)N1CCC(O)(Cn2ccc3ccncc32)CC1
Percent Effect: -4.326

Compound: COCCN1CCN(Cc2cccc(C(=O)N(C)C)c2)CC1C (stereo unspecified)
Percent Effect: -23.57

Compound: CCN(C)c1ncnc2c1CCN(C(=O)c1ccoc1C)CC2.O=C(O)C(F)(F)F
Percent Effect: -16.96 & -4.141

Some entries from above, unchanged:

| Compound | Percent Effect |
|---|---|
| `C[C@@H]1CN(C2(C(=O)N(C)C)Cc3ccccc3C2)C[C@H](C)O1` | 0.7585 & 3.515 |
| `Cn1c(N)nnc1SCc1cc(Br)ccc1Cl` | -44.35 |

The values are deposited in ChEMBL (CHEMBL3988442, “University of Dundee, Small-Polar-MMV Screening Library” (2021)).